The list shows a part of the results. Many values rest on one well or one pass, so single values are uncertain.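 The apoptosis fraction was the count of cleaved-PARP antibody-stained nuclei relative to all DNA-stained nuclei, imaged in 1,536-well plates. Screening doses were set so most cells survived, and baseline and induced cleaved-PARP levels vary greatly across cell lines.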
system: 501Mel; assay: cleaved PARP positive nuclei fraction relative to DMSO control; melanoma cells; higher = more apoptosis; conditions: library dose: low library concentration; 72 h

SMILES | cleaved PARP positive nuclei fraction [%]
O=C(/C=C/c1cccnc1)NCCCCC1CCN(C(=O)c2ccccc2)CC1 + CC1(C)NC(=O)N(c2ccc([N+](=O)[O-])c(C(F)(F)F)c2)C1=O [nilutamide] (first compound 0.01 µM, partner dose 1 µM) | 172
Cc1ccc(Nc2nccc(N(C)c3ccc4c(C)n(C)nc4c3)n2)cc1S(N)(=O)=O [Pazopanib] + C[C@@H]1CCN(C(=O)CC#N)C[C@@H]1N(C)c1ncnc2[nH]ccc12 [CP690550] (first compound 0.4 µM, partner dose 1 µM) | 189
O=C(Nc1cc(C(F)(F)F)cc(C(F)(F)F)c1)c1cc(Cl)ccc1O + Cc1cc(N2CCOCC2)cc2[nH]c(-c3c(NC[C@@H](O)c4cccc(Cl)c4)cc[nH]c3=O)nc12 [BMS536924] (first compound 0.016 µM, partner dose 0.2 µM) | 94.7
Cc1cn(-c2cc(NC(=O)c3ccc(C)c(Nc4nccc(-c5cccnc5)n4)c3)cc(C(F)(F)F)c2)cn1 [nilotinib] + CO[C@@H]1[C@H](N(C)C(=O)c2ccccc2)C[C@H]2O[C@]1(C)n1c3ccccc3c3c4c(c5c6ccccc6n2c5c31)C(=O)NC4 [Midostaurin] (first compound 0.2 µM, partner dose 0.08 µM) | 88.2
O=C(Nc1cc(C(F)(F)F)cc(C(F)(F)F)c1)c1cc(Cl)ccc1O + NC(=O)Nc1cc(-c2cccc(F)c2)sc1C(=O)N[C@H]1CCCNC1 [AZD7762] (first compound 0.016 µM, partner dose 0.02 µM) | 79.7
Cc1ccc(Nc2nccc(N(C)c3ccc4c(C)n(C)nc4c3)n2)cc1S(N)(=O)=O [Pazopanib] + COc1cc2c(Oc3ccc4[nH]c(C)cc4c3F)ncnc2cc1OCCCN1CCCC1 [cediranib] (first compound 0.4 µM, partner dose 0.4 µM) | 93.3
Cc1cn(-c2cc(NC(=O)c3ccc(C)c(Nc4nccc(-c5cccnc5)n4)c3)cc(C(F)(F)F)c2)cn1 [nilotinib] + Cc1cc(N2CCOCC2)cc2[nH]c(-c3c(NC[C@@H](O)c4cccc(Cl)c4)cc[nH]c3=O)nc12 [BMS536924] (first compound 0.2 µM, partner dose 0.2 µM) | 90.4
O=c1[nH]nc(Sc2ncc([N+](=O)[O-])s2)n1-c1ccc2c(c1)OCCO2 + O=C(Nc1cccc(Cl)c1)Nc1ncc(CCNc2ncnc3ccsc23)s1 [SNS314] (first compound 0.2 µM, partner dose 0.0008 µM) | 70.2
Cc1ccc(Nc2nccc(N(C)c3ccc4c(C)n(C)nc4c3)n2)cc1S(N)(=O)=O [Pazopanib] + Cc1cc(N2CCOCC2)cc2[nH]c(-c3c(NC[C@@H](O)c4cccc(Cl)c4)cc[nH]c3=O)nc12 [BMS536924] (first compound 0.4 µM, partner dose 0.2 µM) | 286
COc1cc([C@@H]2c3cc4c(cc3[C@@H](O[C@@H]3O[C@@H]5CO[C@@H](C)O[C@H]5[C@H](O)[C@H]3O)[C@H]3COC(=O)[C@H]23)OCO4)cc(OC)c1O [etoposide] + C[C@@H]1CCN(C(=O)CC#N)C[C@@H]1N(C)c1ncnc2[nH]ccc12 [CP690550] (first compound 0.02 µM, partner dose 1 µM) | 170
Cc1cc(Nc2cc(N3CCN(C)CC3)nc(Sc3ccc(NC(=O)C4CC4)cc3)n2)n[nH]1 [Tozasertib] + CN(C)S(=O)(=O)c1ccc2c(c1)/C(=C/c1cc3c([nH]1)CCCC3)C(=O)N2 [SU6656] (first compound 0.006 µM, partner dose 0.4 µM) | 223
O=C(/C=C/c1cccnc1)NCCCCC1CCN(C(=O)c2ccccc2)CC1 + CN(NC(=O)CC(=O)NN(C)C(=S)c1ccccc1)C(=S)c1ccccc1 [STA4783] (first compound 0.01 µM, partner dose 0.006 µM) | 643
O=C(Nc1cc(C(F)(F)F)cc(C(F)(F)F)c1)c1cc(Cl)ccc1O + CN(NC(=O)CC(=O)NN(C)C(=S)c1ccccc1)C(=S)c1ccccc1 [STA4783] (first compound 0.016 µM, partner dose 0.006 µM) | 222
COc1cc([C@@H]2c3cc4c(cc3[C@@H](O[C@@H]3O[C@@H]5CO[C@@H](C)O[C@H]5[C@H](O)[C@H]3O)[C@H]3COC(=O)[C@H]23)OCO4)cc(OC)c1O [etoposide] + NC(=O)Nc1cc(-c2cccc(F)c2)sc1C(=O)N[C@H]1CCCNC1 [AZD7762] (first compound 0.02 µM, partner dose 0.02 µM) | 173

As entered above:
Cc1cn(-c2cc(NC(=O)c3ccc(C)c(Nc4nccc(-c5cccnc5)n4)c3)cc(C(F)(F)F)c2)cn1 [nilotinib] + Cc1cc(N2CCOCC2)cc2[nH]c(-c3c(NC[C@@H](O)c4cccc(Cl)c4)cc[nH]c3=O)nc12 [BMS536924] (first compound 0.2 µM, partner dose 0.2 µM) – cleaved PARP positive nuclei fraction [%]: 90.4
Cc1cc(Nc2cc(N3CCN(C)CC3)nc(Sc3ccc(NC(=O)C4CC4)cc3)n2)n[nH]1 [Tozasertib] + CN(C)S(=O)(=O)c1ccc2c(c1)/C(=C/c1cc3c([nH]1)CCCC3)C(=O)N2 [SU6656] (first compound 0.006 µM, partner dose 0.4 µM) – cleaved PARP positive nuclei fraction [%]: 223

Reference: the supplement of paper PMC4604168 (melanoma cell lines)
